Measurements: publication PMC11443917
No constants are given. Whether binding was seen depends on the method and setting. In cells and extracts the contact can be indirect. Some entries that bind do so weakly or less than the wild type.

Biological target: T1, Signaling lymphocyte activation molecule family 6 (SLAMF6) (mouse (endogenous in CD4+ T cells from mouse splenocytes)) (UniProt Q9ET39)
T1 sequence: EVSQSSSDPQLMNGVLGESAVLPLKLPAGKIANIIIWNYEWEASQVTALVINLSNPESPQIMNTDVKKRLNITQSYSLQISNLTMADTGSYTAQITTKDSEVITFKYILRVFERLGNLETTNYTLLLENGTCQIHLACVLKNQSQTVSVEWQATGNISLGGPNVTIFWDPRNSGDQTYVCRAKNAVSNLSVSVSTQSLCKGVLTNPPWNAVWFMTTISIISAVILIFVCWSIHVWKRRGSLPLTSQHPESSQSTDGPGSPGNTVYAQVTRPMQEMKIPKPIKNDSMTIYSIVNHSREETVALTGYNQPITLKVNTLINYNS
Test: co-IP; total protein of CD4+ T cells in lysis buffer with protease and phosphatase inhibitors; antibody overnight at 4 °C, protein A/G agarose beads 2 h, washed with lysis buffer, western blot

B1: SH2D1A (SLAM-associated protein) (protein, UniProt O88890 1-126)
chain: MDAVTVYHGKISRETGEKLLLATGLDGSYLLRDSESVPGVYCLCVLYQGYIYTYRVSQTETGSWSAETAPGVHKRFFRKVKNLISAFQKPDQGIVTPLQYPVEKSSGRGPQAPTGRRDSDICLNAP
binding: binds
